# Experimental data: publication doi:10.1101/2020.08.06.240739
# Amino acid sequences for entries named in this document (tags omitted). A change or cut given only in a name is not applied to a line headed by its entry.
# UniProt O96017, whole entry: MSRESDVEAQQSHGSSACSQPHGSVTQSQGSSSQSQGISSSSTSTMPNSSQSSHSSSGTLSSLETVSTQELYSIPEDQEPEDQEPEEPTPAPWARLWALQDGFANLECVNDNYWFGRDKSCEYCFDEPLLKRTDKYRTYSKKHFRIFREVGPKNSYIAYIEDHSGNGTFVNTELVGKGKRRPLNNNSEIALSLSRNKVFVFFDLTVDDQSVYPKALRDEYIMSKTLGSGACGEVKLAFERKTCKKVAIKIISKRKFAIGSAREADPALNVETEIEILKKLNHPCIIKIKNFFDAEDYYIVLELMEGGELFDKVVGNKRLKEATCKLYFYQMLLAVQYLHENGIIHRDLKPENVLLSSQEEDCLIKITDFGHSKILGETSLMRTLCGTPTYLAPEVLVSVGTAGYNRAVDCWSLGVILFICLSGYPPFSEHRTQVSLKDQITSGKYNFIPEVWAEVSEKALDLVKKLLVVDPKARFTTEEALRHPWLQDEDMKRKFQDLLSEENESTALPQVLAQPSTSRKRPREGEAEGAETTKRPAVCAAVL
# Results are given in words; binding and its absence hold for the method and conditions named. In cells and extracts the contact can be indirect. Some results given as binding are weak or reduced against the parent protein; the word gives no strength. For some of these results: Sequences can lack the tags named with a protein.
# Columns and labels:
# [1] = molecular target: CHK2, Flag-tagged and Myc-tagged copies co-expressed (UniProt O96017); experiment: co-IP
# [2] = molecular target: T1, HA-tagged OGT (O-GlcNAc transferase), full length (UniProt O15294); experiment: co-IP
# T1 sequence: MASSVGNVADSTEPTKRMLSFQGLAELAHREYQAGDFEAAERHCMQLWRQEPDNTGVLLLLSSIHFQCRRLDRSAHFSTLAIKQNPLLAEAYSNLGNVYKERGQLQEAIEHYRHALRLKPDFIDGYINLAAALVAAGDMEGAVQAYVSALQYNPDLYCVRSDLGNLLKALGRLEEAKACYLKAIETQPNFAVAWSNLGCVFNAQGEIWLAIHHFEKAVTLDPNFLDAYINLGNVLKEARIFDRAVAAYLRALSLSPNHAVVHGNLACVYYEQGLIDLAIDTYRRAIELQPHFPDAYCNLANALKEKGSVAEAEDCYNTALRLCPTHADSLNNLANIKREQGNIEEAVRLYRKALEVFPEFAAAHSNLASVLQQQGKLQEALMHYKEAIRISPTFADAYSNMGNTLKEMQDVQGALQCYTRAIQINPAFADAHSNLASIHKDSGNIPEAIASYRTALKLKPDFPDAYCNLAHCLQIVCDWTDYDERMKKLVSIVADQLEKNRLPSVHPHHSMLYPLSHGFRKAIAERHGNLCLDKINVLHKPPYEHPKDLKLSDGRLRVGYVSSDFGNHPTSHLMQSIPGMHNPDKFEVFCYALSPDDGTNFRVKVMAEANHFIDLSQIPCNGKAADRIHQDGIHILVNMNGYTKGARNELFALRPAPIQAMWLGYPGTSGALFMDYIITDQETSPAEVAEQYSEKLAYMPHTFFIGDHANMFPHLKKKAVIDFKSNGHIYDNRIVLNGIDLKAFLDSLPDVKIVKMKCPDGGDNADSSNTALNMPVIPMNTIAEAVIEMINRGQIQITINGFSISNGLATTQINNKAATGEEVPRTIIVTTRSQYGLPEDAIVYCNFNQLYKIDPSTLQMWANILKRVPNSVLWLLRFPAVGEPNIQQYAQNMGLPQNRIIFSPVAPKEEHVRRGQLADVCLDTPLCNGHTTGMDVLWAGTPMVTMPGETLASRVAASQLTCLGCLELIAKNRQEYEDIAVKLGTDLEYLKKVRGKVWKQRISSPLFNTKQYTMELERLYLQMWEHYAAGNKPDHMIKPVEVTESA
# [3] = molecular target: checkpoint kinase 2 (CHK2), endogenous (human (endogenous in PLC/PRF/5)) (UniProt O96017); experiment: cross-linking
# [4] = molecular target: T2, O-GlcNAc transferase (OGT), endogenous (human (endogenous in PLC/PRF/5)) (UniProt O15294); experiment: co-IP
# T2 sequence: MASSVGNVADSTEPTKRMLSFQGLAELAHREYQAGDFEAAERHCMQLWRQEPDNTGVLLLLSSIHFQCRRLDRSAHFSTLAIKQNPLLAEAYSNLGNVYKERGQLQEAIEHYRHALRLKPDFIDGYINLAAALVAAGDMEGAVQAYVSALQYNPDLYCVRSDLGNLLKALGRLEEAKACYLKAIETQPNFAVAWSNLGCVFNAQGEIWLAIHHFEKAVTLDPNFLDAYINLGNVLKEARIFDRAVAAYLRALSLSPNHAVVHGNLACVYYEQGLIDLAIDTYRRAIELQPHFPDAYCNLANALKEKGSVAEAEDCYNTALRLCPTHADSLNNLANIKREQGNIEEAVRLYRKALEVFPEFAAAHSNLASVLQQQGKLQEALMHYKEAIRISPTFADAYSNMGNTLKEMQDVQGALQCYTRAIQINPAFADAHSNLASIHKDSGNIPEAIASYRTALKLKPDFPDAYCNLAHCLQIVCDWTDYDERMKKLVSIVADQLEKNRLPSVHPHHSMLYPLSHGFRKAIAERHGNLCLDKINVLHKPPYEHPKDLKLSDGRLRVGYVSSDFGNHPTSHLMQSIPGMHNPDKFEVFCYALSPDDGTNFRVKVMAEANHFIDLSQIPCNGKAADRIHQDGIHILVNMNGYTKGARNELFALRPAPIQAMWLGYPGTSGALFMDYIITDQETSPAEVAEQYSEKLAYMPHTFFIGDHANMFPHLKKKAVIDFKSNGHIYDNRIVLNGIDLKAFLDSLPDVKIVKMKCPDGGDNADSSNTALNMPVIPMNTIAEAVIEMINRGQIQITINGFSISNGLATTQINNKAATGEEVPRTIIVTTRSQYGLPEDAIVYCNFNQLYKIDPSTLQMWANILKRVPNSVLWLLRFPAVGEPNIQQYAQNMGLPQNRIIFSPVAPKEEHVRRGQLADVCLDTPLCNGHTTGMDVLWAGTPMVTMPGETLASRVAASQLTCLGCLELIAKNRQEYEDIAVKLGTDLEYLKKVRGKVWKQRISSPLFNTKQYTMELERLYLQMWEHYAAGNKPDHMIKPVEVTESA
# [5] = molecular target: Flag-tagged CHK2, full length (aa 1-543) (UniProt O96017); experiment: co-IP
molecule,measurement,setting,value
"CHK2, Flag-tagged and Myc-tagged copies co-expressed (from UniProt O96017-1 1-543)",binding,[1],binds
Flag-tagged CHK2 ΔN truncation mutant (aa 69-543) (from UniProt O96017-1 69-543) (domain or fragment),binding,[2],binds
"Flag-tagged CHK2, full length (aa 1-543) (from UniProt O96017-1 1-543)",binding,[2],binds
Flag-tagged CHK2 ΔC truncation mutant (aa 1-221) (from UniProt O96017-1 1-221) (domain or fragment),binding,[2],no binding
"checkpoint kinase 2 (CHK2), endogenous (from UniProt O96017 1-543)",binding,[3],binds
same,binding,[4],binds
"HA-tagged OGT (O-GlcNAc transferase), full length (protein, UniProt O15294-1 1-1046) MASSVGNVADSTEPTKRMLSFQGLAELAHREYQAGDFEAAERHCMQLWRQEPDNTGVLLLLSSIHFQCRRLDRSAHFSTLAIKQNPLLAEAYSNLGNVYKERGQLQEAIEHYRHALRLKPDFIDGYINLAAALVAAGDMEGAVQAYVSALQYNPDLYCVRSDLGNLLKALGRLEEAKACYLKAIETQPNFAVAWSNLGCVFNAQGEIWLAIHHFEKAVTLDPNFLDAYINLGNVLKEARIFDRAVAAYLRALSLSPNHAVVHGNLACVYYEQGLIDLAIDTYRRAIELQPHFPDAYCNLANALKEKGSVAEAEDCYNTALRLCPTHADSLNNLANIKREQGNIEEAVRLYRKALEVFPEFAAAHSNLASVLQQQGKLQEALMHYKEAIRISPTFADAYSNMGNTLKEMQDVQGALQCYTRAIQINPAFADAHSNLASIHKDSGNIPEAIASYRTALKLKPDFPDAYCNLAHCLQIVCDWTDYDERMKKLVSIVADQLEKNRLPSVHPHHSMLYPLSHGFRKAIAERHGNLCLDKINVLHKPPYEHPKDLKLSDGRLRVGYVSSDFGNHPTSHLMQSIPGMHNPDKFEVFCYALSPDDGTNFRVKVMAEANHFIDLSQIPCNGKAADRIHQDGIHILVNMNGYTKGARNELFALRPAPIQAMWLGYPGTSGALFMDYIITDQETSPAEVAEQYSEKLAYMPHTFFIGDHANMFPHLKKKAVIDFKSNGHIYDNRIVLNGIDLKAFLDSLPDVKIVKMKCPDGGDNADSSNTALNMPVIPMNTIAEAVIEMINRGQIQITINGFSISNGLATTQINNKAATGEEVPRTIIVTTRSQYGLPEDAIVYCNFNQLYKIDPSTLQMWANILKRVPNSVLWLLRFPAVGEPNIQQYAQNMGLPQNRIIFSPVAPKEEHVRRGQLADVCLDTPLCNGHTTGMDVLWAGTPMVTMPGETLASRVAASQLTCLGCLELIAKNRQEYEDIAVKLGTDLEYLKKVRGKVWKQRISSPLFNTKQYTMELERLYLQMWEHYAAGNKPDHMIKPVEVTESA",binding,[5],binds
